Experimental data from PMC10424150.

The chains behind the UniProt entries cited, without tags or fusion partners.
UniProt Q14160: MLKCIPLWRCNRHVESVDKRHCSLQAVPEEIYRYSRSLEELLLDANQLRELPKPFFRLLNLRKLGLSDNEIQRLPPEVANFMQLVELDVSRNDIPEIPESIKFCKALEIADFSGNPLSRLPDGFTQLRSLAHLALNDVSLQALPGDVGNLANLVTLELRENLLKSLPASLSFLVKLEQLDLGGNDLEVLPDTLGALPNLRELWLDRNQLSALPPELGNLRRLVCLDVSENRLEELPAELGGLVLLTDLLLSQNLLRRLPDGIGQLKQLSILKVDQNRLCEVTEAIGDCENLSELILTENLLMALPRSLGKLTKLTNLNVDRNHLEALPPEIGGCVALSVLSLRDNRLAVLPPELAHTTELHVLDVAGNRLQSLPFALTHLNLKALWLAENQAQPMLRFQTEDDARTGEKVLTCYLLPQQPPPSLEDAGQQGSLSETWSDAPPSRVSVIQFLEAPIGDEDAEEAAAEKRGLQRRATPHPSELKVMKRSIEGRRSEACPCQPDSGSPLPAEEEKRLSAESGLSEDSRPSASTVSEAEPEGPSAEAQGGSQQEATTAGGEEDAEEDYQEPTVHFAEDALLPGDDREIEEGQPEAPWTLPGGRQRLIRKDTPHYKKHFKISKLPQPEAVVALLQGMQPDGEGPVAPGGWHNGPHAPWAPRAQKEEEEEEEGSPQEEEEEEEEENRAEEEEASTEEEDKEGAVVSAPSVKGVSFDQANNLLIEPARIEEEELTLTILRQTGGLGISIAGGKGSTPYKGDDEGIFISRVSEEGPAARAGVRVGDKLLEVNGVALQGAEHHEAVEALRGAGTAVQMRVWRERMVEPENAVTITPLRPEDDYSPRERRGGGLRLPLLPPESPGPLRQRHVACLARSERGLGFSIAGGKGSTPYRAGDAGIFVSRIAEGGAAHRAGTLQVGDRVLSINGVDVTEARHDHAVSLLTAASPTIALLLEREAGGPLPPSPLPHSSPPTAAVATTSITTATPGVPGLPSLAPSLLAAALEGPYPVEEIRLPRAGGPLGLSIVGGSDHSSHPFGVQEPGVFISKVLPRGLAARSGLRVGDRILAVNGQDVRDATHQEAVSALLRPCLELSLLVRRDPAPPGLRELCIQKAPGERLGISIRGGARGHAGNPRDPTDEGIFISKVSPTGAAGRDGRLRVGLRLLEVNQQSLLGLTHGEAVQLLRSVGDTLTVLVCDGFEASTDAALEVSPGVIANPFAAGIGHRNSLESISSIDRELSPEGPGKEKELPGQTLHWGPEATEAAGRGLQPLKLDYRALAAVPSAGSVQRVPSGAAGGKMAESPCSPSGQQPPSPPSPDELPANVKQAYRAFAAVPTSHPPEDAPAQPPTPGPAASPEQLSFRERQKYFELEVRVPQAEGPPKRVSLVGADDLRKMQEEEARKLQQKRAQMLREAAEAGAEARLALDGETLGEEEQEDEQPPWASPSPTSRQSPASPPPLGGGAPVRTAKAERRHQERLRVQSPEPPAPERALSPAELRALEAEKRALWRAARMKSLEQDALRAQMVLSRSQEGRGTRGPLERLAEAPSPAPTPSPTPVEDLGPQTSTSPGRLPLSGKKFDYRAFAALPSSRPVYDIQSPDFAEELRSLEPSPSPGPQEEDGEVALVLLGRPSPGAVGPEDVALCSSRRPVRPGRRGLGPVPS

Molecular target: T1, FLAG-TRAF7, full-length human TRAF7 (human) (UniProt Q6Q0C0)
T1 sequence: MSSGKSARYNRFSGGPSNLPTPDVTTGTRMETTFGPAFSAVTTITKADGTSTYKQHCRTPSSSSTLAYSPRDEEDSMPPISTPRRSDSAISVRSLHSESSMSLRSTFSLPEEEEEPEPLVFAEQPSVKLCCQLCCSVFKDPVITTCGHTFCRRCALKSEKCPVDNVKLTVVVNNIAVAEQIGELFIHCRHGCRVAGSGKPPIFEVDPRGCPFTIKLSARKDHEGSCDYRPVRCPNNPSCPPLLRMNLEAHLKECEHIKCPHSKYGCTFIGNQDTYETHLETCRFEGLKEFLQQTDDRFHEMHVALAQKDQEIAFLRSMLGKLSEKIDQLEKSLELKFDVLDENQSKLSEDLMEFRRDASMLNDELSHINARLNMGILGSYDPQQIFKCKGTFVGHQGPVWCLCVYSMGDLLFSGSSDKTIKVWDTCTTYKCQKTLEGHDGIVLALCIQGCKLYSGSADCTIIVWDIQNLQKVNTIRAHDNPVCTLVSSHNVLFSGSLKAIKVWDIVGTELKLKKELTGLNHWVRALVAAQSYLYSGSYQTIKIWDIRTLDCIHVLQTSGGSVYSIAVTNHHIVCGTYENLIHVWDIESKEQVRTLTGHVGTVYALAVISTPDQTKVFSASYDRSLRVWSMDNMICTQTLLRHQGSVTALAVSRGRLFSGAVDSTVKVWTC
Assay: affinity purification with mass spectrometry; FLAG-TRAF7 precipitates from HEK293 on anti-FLAG beads, gel segments digested with trypsin, ion trap MS/MS; proteins precipitated with BAP beads subtracted

- binding: binds
Substance: planar cell polarity protein scribble homolog (SCRIB), endogenous (from UniProt Q14160 1-1655)

Results are given in words; binding and its absence hold for the method and conditions named. In cells and extracts the contact can be indirect. These calls come from enrichment with a bait or labelling near it, and not all partners need be listed. Tags and fused reporters may be left off the sequences shown.
